These are yes or no findings as the source states them, for the method shown. Binding seen in cells or lysates may run through a third protein. Here binding means that the protein was enriched with, or labelled near, the bait; the list need not be complete. Where a sequence is shown, tags or fusion partners need not be part of it.
Target: T1, PDZD8-3×HA (endogenous PDZD8 of the Pdzd8-3×HA knock-in mouse) (mouse (endogenous in neocortex, knock-in)) (UniProt B9EJ80)
T1 sequence: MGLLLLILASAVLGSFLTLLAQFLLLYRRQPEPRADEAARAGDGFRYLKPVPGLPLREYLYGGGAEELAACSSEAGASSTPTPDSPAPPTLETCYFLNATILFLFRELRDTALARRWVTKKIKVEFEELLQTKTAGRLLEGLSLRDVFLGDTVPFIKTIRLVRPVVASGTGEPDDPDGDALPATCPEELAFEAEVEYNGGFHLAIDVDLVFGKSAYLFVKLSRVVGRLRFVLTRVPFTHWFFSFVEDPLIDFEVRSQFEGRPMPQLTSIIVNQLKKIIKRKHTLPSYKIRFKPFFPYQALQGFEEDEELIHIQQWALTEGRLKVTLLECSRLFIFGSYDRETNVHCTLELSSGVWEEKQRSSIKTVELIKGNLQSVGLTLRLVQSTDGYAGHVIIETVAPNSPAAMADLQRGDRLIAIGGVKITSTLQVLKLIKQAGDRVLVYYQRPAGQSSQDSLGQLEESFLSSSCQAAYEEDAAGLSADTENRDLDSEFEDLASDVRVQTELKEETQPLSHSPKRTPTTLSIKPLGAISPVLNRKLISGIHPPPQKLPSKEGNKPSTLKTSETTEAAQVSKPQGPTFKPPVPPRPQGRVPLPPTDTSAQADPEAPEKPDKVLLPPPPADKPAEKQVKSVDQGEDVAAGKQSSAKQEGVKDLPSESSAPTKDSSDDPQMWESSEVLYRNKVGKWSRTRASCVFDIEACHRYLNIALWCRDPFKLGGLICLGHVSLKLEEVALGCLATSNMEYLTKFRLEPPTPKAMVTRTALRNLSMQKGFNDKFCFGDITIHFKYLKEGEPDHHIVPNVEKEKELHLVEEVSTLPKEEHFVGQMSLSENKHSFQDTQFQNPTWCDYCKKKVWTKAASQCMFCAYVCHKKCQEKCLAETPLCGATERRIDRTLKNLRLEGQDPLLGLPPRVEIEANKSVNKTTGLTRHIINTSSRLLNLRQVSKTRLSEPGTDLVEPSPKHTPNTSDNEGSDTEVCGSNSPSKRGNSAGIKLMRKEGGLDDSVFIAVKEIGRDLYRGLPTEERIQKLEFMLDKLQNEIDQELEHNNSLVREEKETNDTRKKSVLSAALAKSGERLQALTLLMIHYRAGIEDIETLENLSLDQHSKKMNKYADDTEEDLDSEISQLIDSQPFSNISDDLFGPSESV
Test: affinity purification with mass spectrometry

binding: binds
B1: VAPA, endogenous, mouse neocortex (protein, UniProt Q9WV55 1-249)
chain: MASASGAMAKHEQILVLDPPSDLKFKGPFTDVVTTNLKLQNPSDRKVCFKVKTTAPRRYCVRPNSGIIDPGSIVTVSVMLQPFDYDPNEKSKHKFMVQTIFAPPNISDMEAVWKEAKPDELMDSKLRCVFEMPNENDKLNDMEPSKAVPLNASKQDGPLPKPHSVSLNDTETRKLMEECKRLQGEMMKLSEENRHLRDEGLRLRKVAHSDKPGSTSAVSFRDNVTSPLPSLLVVIAAIFIGFFLGKFIL

Reference: doi:10.1101/2023.08.22.554218
